Drawing on patent US20110039770A1, “INHIBITORS OF PROTEIN KINASE C ISOFORMS AND USES THEREOF” (PHARMAGAP INC., priority 2005, published 2011), this text covers binding for eleven molecules.

These are yes or no findings as the source states them, for the method shown. For some of these results: Binding calls can cover weak binding; strength is not graded here.

For test [1], the target named is PKC-ζ (purified isoform). In words: competitive ELISA, purified PKC-ζ. In general terms: In an ELISA, binding on a coated surface is turned into a signal by an enzyme label.
The target of test [2] is PKC-δ (purified isoform). In words: competitive ELISA, purified isoform.
Test [3] has as its target PKC-ε (purified isoform). In words: competitive ELISA, purified isoform.
Test [4] concerns the target PKC-ζ (purified isoform). Kind of test: competitive ELISA, purified isoform.
For test [5], the target named is PKC-δ (purified isoform). Kind of test: competitive ELISA, purified isoforms.
Test [6] deals with PKC-ε (purified isoform). Kind of test: competitive ELISA, purified isoforms.
The target of test [7] is PKC-ζ (purified isoform). Kind of test: competitive ELISA, purified isoforms.

Regarding KDAQNLIGISI (N-terminal acetyl (Ac-); C-terminal amide (-NH2)) [PRE 4], the binding result is reported as “no binding (tested: 50-200 µM)” with PKC-ζ (purified isoform) [1] and “binds” in the test with PKC-δ (purified isoform) [2].

In the case of ISIGILQNADK (N-terminal acetyl (Ac-); C-terminal amide (-NH2)) [PRE 7], the binding entry with PKC-ζ (purified isoform) [1] is reported as “no binding (tested: 50-200 µM)”.

On to KDAQNLI (N-terminal acetyl (Ac-); C-terminal amide (-NH2)) [PRE 12], for which the binding entry in the test with PKC-ζ (purified isoform) [1] was “no binding (tested: 50-200 µM)”.

On to ILEDKGGDAQNLIGISI [PRE 8], for which the binding result with PKC-ζ (purified isoform) [1] is recorded as “no binding (tested: 50-200 µM)”.

Regarding ISIGILNQADK (N-terminal acetyl (Ac-); C-terminal amide (-NH2)) [PRE 10], the binding entry in the test with PKC-ζ (purified isoform) [1] is on record as “no binding (tested: 50-200 µM)”.

RRKKGGKDFVVKR [PRE 1]: the values for the binding entry with PKC-ζ (purified isoform) [1] and with PKC-δ (purified isoform) [2] were “no binding (tested: 50-200 µM)” and “binds”, respectively.

On to AKGIQEVKGGKDAQNLIGISI (N-terminal acetyl (Ac-); C-terminal amide (-NH2)) [PRE 5], for which, in the test with PKC-ζ (purified isoform) [1], the binding entry is “no binding (tested: 50-200 µM)”.

Consider RDAQNLI (N-terminal acetyl (Ac-); C-terminal amide (-NH2)) [PRE 13], for which the binding entry with PKC-ζ (purified isoform) [1] was “no binding (tested: 50-200 µM)”.

Turning to AKGIQEVKGGDAQNLIGISI (N-terminal acetyl (Ac-); C-terminal amide (-NH2)) [PRE 3], the binding entry with PKC-δ (purified isoform) [2], with PKC-ε (purified isoform) [3], with PKC-ζ (purified isoform) [4], with PKC-δ (purified isoform) [5], in the test with PKC-ε (purified isoform) [6] and with PKC-ζ (purified isoform) [7] was “binds” throughout.

With KDANQLIGISI (N-terminal acetyl (Ac-); C-terminal amide (-NH2)) [PRE 6], in the test with PKC-ζ (purified isoform) [1], the binding result is on record as “no binding (tested: 50-200 µM)”.

As to RDAQNLIGISI (N-terminal acetyl (Ac-); C-terminal amide (-NH2)) [PRE 11], the binding entry with PKC-ζ (purified isoform) [1] is “no binding (tested: 50-200 µM)”; with PKC-δ (purified isoform) [2], “binds”.
